Construct, isoform or probe ends are uncertain for at least one entry.
Tests used:
Assay in all cases: filter binding
Rr-S15 = Rr-S15 (UniProt A0ABD5LGG5); conditions: 50 mM Tris/acetate pH 7.5, 20 mM Mg-acetate, 270 mM KCl, 5 mM DTT, 0.02% BSA, RNA <1 nM, 30 min at 25 C (thermophile RNAs also at 55 C), recombinant protein, label: 5'-32P
Gk-S15 = Gk-S15 (UniProt Q5L0I3); conditions: 50 mM Tris/acetate pH 7.5, 20 mM Mg-acetate, 270 mM KCl, 5 mM DTT, 0.02% BSA, RNA <1 nM, 30 min at 25 C (thermophile RNAs also at 55 C); recombinant protein; label: 5'-32P, 3'-[32P]pCp also tried
[1] = biological target: Tt-S15 (Thermus thermophilus) (UniProt Q5SJ76); conditions: 50 mM Tris/acetate pH 7.5, 20 mM Mg-acetate, 270 mM KCl, 5 mM DTT, 0.02% BSA, RNA <1 nM, 30 min at 25 C (thermophile RNAs also at 55 C), recombinant protein, label: 5'-32P
[2] = biological target: Ec-S15 (Escherichia coli) (UniProt P0ADZ4); conditions: 50 mM Tris/acetate pH 7.5, 20 mM Mg-acetate, 270 mM KCl, 5 mM DTT, 0.02% BSA, RNA <1 nM, 30 min at 25 C (thermophile RNAs also at 55 C); recombinant protein; label: 5'-32P; letters put together from the description
[3] = letters put together from the description

| Sequence | Kd (Rr-S15; 3'-[32P]pCp also tried) | Kd (Gk-S15) | Kd ([1]; 3'-[32P]pCp also tried) | Kd (Rr-S15; [3]) | Kd [2] | Kd [1, 3] |
| --- | --- | --- | --- | --- | --- | --- |
| ACUGGGAUCGCUGAAUUAGAGAUCGGCGUCCUUUCAUUCUAUAUACUUUGGAGUUUUAAAAUGUCUCUAAGUACUGAAGCAACAGCU [Ec-mRNA WT] | > 1000 nM | > 400 nM | > 500 nM |  |  |  |
| GGCUUGGCGGGAGACCGCCAAAUGGAGGAAGGGGCUCAAAGCGCCUUCCCGCCUGACGGAGGGAAAACAUGCCCAUCACGAA [Tt-mRNA M1] |  |  |  | > 500 nM | > 500 nM | > 500 nM |
| GGCUUGGCGGGAGACCGCCUCGAGGAGGAAGGGGCUCAAAGCGCCUUCCCGCCUGACGGAGGGAAAACAUGCCCAUCACGAA [Tt-mRNA WT] |  |  |  | > 500 nM | > 500 nM |  |
